These are yes or no findings as the source states them, for the method shown. Binding can be weak; no strength is given. Sequences can lack the tags named with a protein. For part of these data: Binding seen in cells or lysates may run through a third protein.
Legend:
[1] = target: OsMYB22 (yeast two-hybrid bait fusion) (rice); assay: two-hybrid; OsPCF5 in prey vector pGAD-T7, MYB in bait vector pGBK-T7, yeast AH109; growth on SD-Leu-Trp-His-Ade
[2] = target: OsMYB30 (yeast two-hybrid bait fusion) (rice); assay: two-hybrid; OsPCF5 in prey vector pGAD-T7, MYB in bait vector pGBK-T7, yeast AH109; growth on SD-Leu-Trp-His-Ade with 5 mM 3-AT
[3] = target: OsMYB22 (luciferase complementation fusion) (rice); assay: split reporter; luciferase complementation assay (LCA), NLuc and CLuc fusions co-infiltrated into N. benthamiana leaves, signal read 48 h after infiltration
[4] = target: OsMYB30 (luciferase complementation fusion) (rice); assay: as above
nYFP-OsMYB22 (rice) = assay: split reporter; BiFC, nYFP-OsMYBs and OsPCF5-cYFP co-infiltrated into N. benthamiana leaves, confocal microscopy after 48 h
nYFP-OsMYB30 (rice) = assay: as above

B1: OsPCF5 (yeast two-hybrid prey fusion) (protein, UniProt Q8LT07 1-458)
chain: MGDAGGHSHHHQHGFQPQLLSFGGVGHHHHLHQFTAQPQPPAASHTRGRGGGGEIVPATTTPRSRGGGGGGGGEIVAVQGGHIVRSTGRKDRHSKVCTARGPRDRRVRLSAHTAIQFYDVQDRLGYDRPSKAVDWLIKNAKDAIDKLDVLPAWQPTAGGAGAGNAAAPPSSSTHPDSAENSDDQAQAITVAHTAFDFAGGGSGGTSFLPPSLDSDAIADTIKSFFPMGGTAGGEASSSTTAAQSSAMGFQSYTPDLLSRTGSQSQELRLSLQSLPDPMFHHQQHRHGGGGGGGNGTTQQALFSGAANYSFGGGAMWATEQQAQNQRMLPWNVPDPGGGGGAAYLFNVSQQAAHMQAAAAALGGHQSQFFFQRGPLQSSNQPSERGWPETVEADNQMSHHQGGLSPSVSAAIGFAAPGIGFSGFRLPARIQGDEEHNGGGGGNGDKPPPPSSVSSASHH
binding [1]: binds | binding [2]: binds

B2: OsPCF5 (luciferase complementation fusion) (protein, UniProt Q8LT07 1-458)
chain: MGDAGGHSHHHQHGFQPQLLSFGGVGHHHHLHQFTAQPQPPAASHTRGRGGGGEIVPATTTPRSRGGGGGGGGEIVAVQGGHIVRSTGRKDRHSKVCTARGPRDRRVRLSAHTAIQFYDVQDRLGYDRPSKAVDWLIKNAKDAIDKLDVLPAWQPTAGGAGAGNAAAPPSSSTHPDSAENSDDQAQAITVAHTAFDFAGGGSGGTSFLPPSLDSDAIADTIKSFFPMGGTAGGEASSSTTAAQSSAMGFQSYTPDLLSRTGSQSQELRLSLQSLPDPMFHHQQHRHGGGGGGGNGTTQQALFSGAANYSFGGGAMWATEQQAQNQRMLPWNVPDPGGGGGAAYLFNVSQQAAHMQAAAAALGGHQSQFFFQRGPLQSSNQPSERGWPETVEADNQMSHHQGGLSPSVSAAIGFAAPGIGFSGFRLPARIQGDEEHNGGGGGNGDKPPPPSSVSSASHH
binding [3]: binds | binding [4]: binds

B3: OsPCF5-cYFP (protein, UniProt Q8LT07 1-458)
chain: MGDAGGHSHHHQHGFQPQLLSFGGVGHHHHLHQFTAQPQPPAASHTRGRGGGGEIVPATTTPRSRGGGGGGGGEIVAVQGGHIVRSTGRKDRHSKVCTARGPRDRRVRLSAHTAIQFYDVQDRLGYDRPSKAVDWLIKNAKDAIDKLDVLPAWQPTAGGAGAGNAAAPPSSSTHPDSAENSDDQAQAITVAHTAFDFAGGGSGGTSFLPPSLDSDAIADTIKSFFPMGGTAGGEASSSTTAAQSSAMGFQSYTPDLLSRTGSQSQELRLSLQSLPDPMFHHQQHRHGGGGGGGNGTTQQALFSGAANYSFGGGAMWATEQQAQNQRMLPWNVPDPGGGGGAAYLFNVSQQAAHMQAAAAALGGHQSQFFFQRGPLQSSNQPSERGWPETVEADNQMSHHQGGLSPSVSAAIGFAAPGIGFSGFRLPARIQGDEEHNGGGGGNGDKPPPPSSVSSASHH
binding (nYFP-OsMYB22 (rice)): binds | binding (nYFP-OsMYB30 (rice)): binds

From article PMC10960409
